Measurements reported in PubChem BioAssay AID504808 (Drosophila RNAi Screening Center, 2011).

- Screen: 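Chromatin factors that keep E2F targets switched off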 (primary screen)
- Cells: Drosophila S2 cells
- Knock-down reagent: long dsRNA against Drosophila genes
- Detection: 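Firefly luciferase driven by E2F sites, normalised to Renilla luciferase on the same minimal promoter, measured by plate reader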
- Reading the numbers: E2F firefly: higher = more E2F reporter activity; Renilla normaliser: higher = more normaliser reporter signal
- Call rule: 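a knock-down counted as active when the firefly/Renilla E2F signal rose above 50%, a threshold chosen arbitrarily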
In all, the deposit lists about 21,000 reagents; shown is an unselected part of those with a known target gene and a result. Of all reagents, 18 (0.084%) are marked active. 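Raw counts without plate normalisation, one of two replicates; the ratio scores behind the calls were not deposited.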 Entries without a mark were called inactive. A plus sign joins genes that one reagent is predicted to hit. The record does not give: the amount of reagent, the time to read-out.

gene knocked down | DRSC id | E2F firefly, rep 1 | Renilla normaliser, rep 1
pie | DRSC03590 | 78578 | 3096
CG33635 | DRSC00006 | 1.33e5 | 5250
CG7695 | DRSC16289 | 1.33e5 | 6713
CG13071 | DRSC09954 | 1.44e5 | 7736
y | DRSC18853 | 51247 | 4536
fax | DRSC11345 | 66571 | 3944
CG5823 | DRSC15881 | 53440 | 3338
PCNA2 | DRSC02030 | 1.06e5 | 4283
nop5 | DRSC03582 | 1.66e5 | 5198
msd5 | DRSC08560 | 1.06e5 | 4386
hng1 | DRSC04555 | 71352 | 3180
CG8950 | DRSC07300 | 63603 | 2635
CG43127 | DRSC09039 | 1.28e5 | 4936
Neto | DRSC18982 | 59631 | 3004
Neto | DRSC19503 | 7898 | 708
Neto | DRSC19716 | 1.07e5 | 6571
Neto | DRSC19717 | 1.22e5 | 6582
CG18539 | DRSC06766 | 1.45e5 | 4511
kipf | DRSC15446 | 1.36e5 | 6174
ATPsynCF6 | DRSC14092 | 98265 | 6168
CG3526 | DRSC17240 | 76895 | 2281
CG3526 | DRSC18636 | 1.12e5 | 6160
CG13689 | DRSC00358 | 1.80e5 | 5958
mxc | DRSC17819 | 1.10e5 | 4927
Ppi1 | DRSC15421 | 1807 | 916
Osi11 | DRSC12282 | 1.26e5 | 5663
Sgs1 | DRSC00787 | 1.46e5 | 5987
Sgs1 | DRSC00848 | 1.36e5 | 5240
CG17625 | DRSC15249 | 1.09e5 | 5648
ci | DRSC17172 | 1.18e5 | 5258
Blos2 | DRSC10147 | 69462 | 3214
obst-J | DRSC10821 | 1.35e5 | 6893
Lnk | DRSC16729 | 2215 | 956
CG13760 | DRSC18617 | 1.42e5 | 6377
Axn | DRSC14120 | 84143 | 832
Acer | DRSC01852 | 86076 | 3330
CG12691 | DRSC17880 | 1.10e5 | 5127

Looked up above:
Value for kipf [DRSC15446] in “Renilla normaliser, rep 1”: 6174
Under “Renilla normaliser, rep 1”, Acer [DRSC01852] has 3330
For “E2F firefly, rep 1”, pie [DRSC03590] shows 78578
For “E2F firefly, rep 1”, CG33635 [DRSC00006] shows 1.33e5
Result for CG17625 [DRSC15249] under “Renilla normaliser, rep 1”: 5648

The list goes on.
gene knocked down | DRSC id | E2F firefly, rep 1 | Renilla normaliser, rep 1
Elba2 | DRSC00731 | 90235 | 3821
CG34243 (retired record) | DRSC09291 | 1.30e5 | 3925
CG34243 (retired record) | DRSC09292 | 1.41e5 | 3575
NaPi-T | DRSC07476 | 1.12e5 | 4124
Mau2 | DRSC15550 | 68830 | 3253
Sema5c | DRSC11279 | 1.12e5 | 6081
CG9992 | DRSC20226 | 8316 | 816
Ugt37D1 | DRSC02645 | 99716 | 4284
Octbeta3R | DRSC15351 | 1.46e5 | 7162
Octbeta3R | DRSC16191 | 1.56e5 | 6981
dpr18 | DRSC19606 | 1.46e5 | 7060
CG13946 | DRSC00364 | 1.65e5 | 5267
M7BP | DRSC05932 | 3248 | 171
CG5913 | DRSC15916 | 1.22e5 | 6243
Coop | DRSC06604 | 79344 | 3572
CG5882 | DRSC15907 | 98707 | 6019
Loxl1 | DRSC14303 | 52961 | 4511
pr | DRSC03596 | 78095 | 3409
CG1628 | DRSC18109 | 6738 | 760
Obp83cd | DRSC12267 | 1.31e5 | 6330
CG42714 | DRSC08798 | 1.18e5 | 3737
mdlc | DRSC15690 | 68527 | 4445
CG31200 | DRSC15285 | 1.41e5 | 7425
Qsox3 | DRSC16096 | 1.55e5 | 7963
CG10801 | DRSC17761 | 1.15e5 | 5075
cysu | DRSC15902 | 1.07e5 | 5975
dac | DRSC03518 | 95089 | 4259
CG32109 | DRSC09816 | 1.33e5 | 5864
dpr3 | DRSC00395 | 1.77e5 | 6098
dpr3 | DRSC00396 | 1.74e5 | 6227
BI-1 | DRSC10782 | 70127 | 3320
CG7148 | DRSC11802 | 86110 | 4090
mod(mdg4) + pre-mod(mdg4)-U | DRSC13476 | 88458 | 3004
Ak6 | DRSC07274 | 1.00e5 | 3866
CG2861 | DRSC18229 | 1.17e5 | 6697
CG8173 | DRSC20088 | 1.52e5 | 6906
Taf13 | DRSC02106 | 91472 | 3918
Dic4 | DRSC10317 | 1.61e5 | 7249
CG11911 | DRSC00331 | 87673 | 4235
CG16739 | DRSC06621 | 1.16e5 | 3629
yellow-b | DRSC03639 | 83791 | 4046
Pepck2 | DRSC06013 | 1.66e5 | 4921
CG11590 | DRSC19411 | 1.49e5 | 6209
whd | DRSC07351 | 3255 | 278
sncRNA:430e + His2A:CG33859 + His2A:CG33817 + 37 more | DRSC21264 | 71387 | 4976
Mgat2 | DRSC16347 | 1623 | 952
CG17687 | DRSC10279 | 1.38e5 | 7457
